No constants are given. Whether binding was seen depends on the method and setting. Binding seen in cells or lysates may run through a third protein.
Target: T1, stargazin (Stg), auxiliary subunit of AMPAR-type glutamate receptors (rat (endogenous in primary hippocampal neurons)) (UniProt Q71RJ2)
T1 sequence: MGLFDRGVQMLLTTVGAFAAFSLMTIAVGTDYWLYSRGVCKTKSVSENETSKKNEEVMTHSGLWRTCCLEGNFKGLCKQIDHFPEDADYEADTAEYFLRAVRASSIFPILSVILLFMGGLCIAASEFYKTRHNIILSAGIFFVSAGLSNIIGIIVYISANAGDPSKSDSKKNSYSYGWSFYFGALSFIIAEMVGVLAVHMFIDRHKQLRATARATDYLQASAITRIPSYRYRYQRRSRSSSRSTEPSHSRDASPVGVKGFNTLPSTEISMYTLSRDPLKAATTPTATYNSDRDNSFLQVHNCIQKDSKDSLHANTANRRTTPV
Test: proximity ligation; conventional antibody-based Duolink PLA (no nanobodies) on fixed primary rat hippocampal neurons; positive and negative control pairs

The chains behind the UniProt entries cited, without tags or fusion partners.
UniProt Q99MK2: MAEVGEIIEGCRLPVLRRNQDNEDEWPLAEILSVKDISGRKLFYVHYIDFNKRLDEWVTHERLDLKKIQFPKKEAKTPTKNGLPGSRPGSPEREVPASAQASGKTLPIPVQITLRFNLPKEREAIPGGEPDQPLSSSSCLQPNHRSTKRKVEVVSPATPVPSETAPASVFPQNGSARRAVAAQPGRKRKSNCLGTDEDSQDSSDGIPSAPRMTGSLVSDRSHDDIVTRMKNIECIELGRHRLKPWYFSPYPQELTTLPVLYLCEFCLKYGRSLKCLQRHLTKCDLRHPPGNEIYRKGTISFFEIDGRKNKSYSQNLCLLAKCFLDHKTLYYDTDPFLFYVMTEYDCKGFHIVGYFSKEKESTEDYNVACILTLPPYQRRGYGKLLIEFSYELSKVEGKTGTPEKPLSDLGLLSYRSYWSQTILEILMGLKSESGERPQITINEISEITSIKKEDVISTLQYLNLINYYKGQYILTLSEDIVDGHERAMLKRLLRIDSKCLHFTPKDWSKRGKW

binding: no binding
Substance: Tat-interactive protein 60 (TIP60), nuclear histone acetylase (from UniProt Q99MK2 1-513)
